Measured values from patent US8415469B2, “Compounds and methods for kinase modulation, and indications therefor” (Plexxikon Inc., priority 2005, dated 2013).
pIC50: −log10 of the molar value. At least one compound was matched to its structure with a doubt left. Some results were stated once for a whole list of compounds, not compound by compound.

Sequences of proteins named here, by UniProt entry; tags and fusion partners are left off.
UniProt Q14289, whole entry: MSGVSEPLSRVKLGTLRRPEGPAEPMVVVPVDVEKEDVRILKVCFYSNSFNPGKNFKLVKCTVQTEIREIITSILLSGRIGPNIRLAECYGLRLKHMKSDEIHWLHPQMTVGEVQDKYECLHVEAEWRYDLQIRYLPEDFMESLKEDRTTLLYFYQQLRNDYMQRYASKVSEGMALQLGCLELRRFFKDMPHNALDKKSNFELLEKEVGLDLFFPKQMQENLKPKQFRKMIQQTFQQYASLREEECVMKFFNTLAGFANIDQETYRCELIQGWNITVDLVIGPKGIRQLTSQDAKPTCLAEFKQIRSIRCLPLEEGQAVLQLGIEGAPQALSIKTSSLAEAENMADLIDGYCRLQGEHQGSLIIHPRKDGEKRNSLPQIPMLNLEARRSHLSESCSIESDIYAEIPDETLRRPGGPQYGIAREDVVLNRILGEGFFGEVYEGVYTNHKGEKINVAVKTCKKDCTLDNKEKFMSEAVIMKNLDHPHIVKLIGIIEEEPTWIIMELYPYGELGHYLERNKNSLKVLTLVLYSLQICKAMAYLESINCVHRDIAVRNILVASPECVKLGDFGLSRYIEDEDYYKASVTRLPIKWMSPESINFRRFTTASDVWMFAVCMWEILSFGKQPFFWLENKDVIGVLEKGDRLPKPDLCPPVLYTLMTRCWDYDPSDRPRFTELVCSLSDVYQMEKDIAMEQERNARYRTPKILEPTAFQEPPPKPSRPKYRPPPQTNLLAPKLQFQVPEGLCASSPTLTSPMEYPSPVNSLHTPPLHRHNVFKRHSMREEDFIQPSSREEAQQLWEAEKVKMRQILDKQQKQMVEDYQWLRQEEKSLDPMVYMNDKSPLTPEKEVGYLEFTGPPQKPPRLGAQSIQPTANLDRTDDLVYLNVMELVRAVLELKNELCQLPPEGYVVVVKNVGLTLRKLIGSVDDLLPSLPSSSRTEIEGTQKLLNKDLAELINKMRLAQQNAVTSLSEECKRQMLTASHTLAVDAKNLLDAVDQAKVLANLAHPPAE

Tests used:
Pyk2 = molecular target: T1, Pyk2 (Homo sapiens, UniProt Q14289); assay: AlphaScreen kinase assay, Pyk2; format: biochemical; settings: read-out: IC50, activity toward kinase Pyk2
T1 construct: purchased Upstate Biotechnology

Gsk3 = settings: in vitro; cited from earlier work

For CN(C)S(=O)(=O)Nc1ccc(F)c(C(O)c2c[nH]c3ncc(-c4cccnc4)cc23)c1F (centres unmarked) [Compound P-0944, Dimethylamino-1-sulfonic acid {2,4-difluoro-3-[hydroxy-(5-pyridin-3-yl-1H-pyrrolo[2,3-b]pyridin-3-yl)-methyl]-phenyl}-amide], the pIC50 (Pyk2) was no less than 5.00.

In the case of [Li] [lithium], the “inhibition of Gsk3 activity” value (Gsk3) is listed as “potently and specifically inhibits Gsk3 activity”.
